Results taken from patent US10064926B2, “Peptides and combination of peptides for use in immunotherapy against hepatocellular carcinoma (HCC) and other cancers” (Immatics biotechnologies GmbH, priority 2014, dated 2018).

Experiments:
[1] = test system: tumor samples of other tumor types; assay: Over-presentation of peptides on additional tumor types versus normal tissues (LC-MS); design: species or system human; settings: over-presentation on more than 5% of the measured tumor samples, or presentation on more than 5% with ratio of geometric means tumor vs normal tissues larger than 3
[2] = test system: primary HCC tissue samples; assay: Identification and label-free LC-MS relative quantitation of HLA-presented peptides (presentation profiles/scores), HCC versus normal tissues; design: species or system human; key to PeptidePresentation (presentation score): very highly over-presented on tumors compared to a panel of normal tissues (+++); highly over-presented on tumors compared to a panel of normal tissues (++); over-presented on tumors compared to a panel of normal tissues (+); settings: HCC tumors compared to a panel of normal tissues

| Substance | Additional Entities (additional tumor types on which the peptide was found over-presented) [1] | Other relevant organs/diseases (additional tumor types on which the peptide was found over-presented) [1] | PeptidePresentation (presentation score) [2] |
| --- | --- | --- | --- |
| 295 (SLFSSPPEI; listed as Homo sapiens) [compound 295] | NSCLC, SCLC, CRC, PrC, BRCA, Melanoma, OC, Urinary bladder cancer, Uterine Cancer | Kidney, Brain | ++ |
| 297 (TLFYSLREV; listed as Homo sapiens) [compound 297] | BRCA, Uterine Cancer, AML | Kidney, Brain, Colon, Rectum | + |
| 299 (ALLRVTPFI; listed as Homo sapiens) [compound 299] | NHL, OC | CLL | + |
| 301 (VLADFGARV; listed as Homo sapiens) [compound 301] |  | Kidney, Colon, Rectum | +++ |
| 304 (SLIDQFFGV; listed as Homo sapiens) [compound 304] |  | Brain, Colon, Rectum, Pancreas | +++ |
| 305 (GVLENIFGV; listed as Homo sapiens) [compound 305] |  | Kidney, Brain | + |
| 308 (ALLRTVVSV; listed as Homo sapiens) [compound 308] |  | Kidney, Pancreas | + |
| 309 (GLIEIISNA; listed as Homo sapiens) [compound 309] |  | Brain | + |
| 310 (SLWGGDVVL; listed as Homo sapiens) [compound 310] |  | Brain, Colon, Rectum | + |
| 311 (FLIPIYHQV; listed as Homo sapiens) [compound 311] |  | Kidney, Brain | + |
| 312 (RLGIKPESV; listed as Homo sapiens) [compound 312] |  | Brain | +++ |
| 313 (LTAPPEALLMV; listed as Homo sapiens) [compound 313] |  | Kidney, Brain, Colon, Rectum, Pancreas | + |
| 315 (KVLDGSPIEV; listed as Homo sapiens) [compound 315] |  | Kidney | + |
| 316 (LLREKVEFL; listed as Homo sapiens) [compound 316] |  | Kidney, Brain, Colon, Rectum, Pancreas | + |
| 317 (KLPEKWESV; listed as Homo sapiens) [compound 317] |  | Brain, Colon, Rectum, Pancreas | ++ |
| 319 (KLFNEFIQL; listed as Homo sapiens) [compound 319] |  | Kidney, Brain, Colon, Rectum | + |

| Substance | Additional Entities (additional tumor types on which the peptide was found over-presented) [1] | Other relevant organs/diseases (additional tumor types on which the peptide was found over-presented) [1] | PeptidePresentation (presentation score) [2] |
| --- | --- | --- | --- |
| 324 (RLFETKITQV; listed as Homo sapiens) [compound 324] |  | Kidney | ++ |
| 326 (ALSDGVHKI; listed as Homo sapiens) [compound 326] |  | Pancreas | ++ |
| 328 (RLEEDDGDVAM; listed as Homo sapiens) [compound 328] |  | Kidney, Brain, Colon, Rectum | + |
| 329 (SLIEDLILL; listed as Homo sapiens) [compound 329] |  | Kidney, Brain, Colon, Rectum, Pancreas | +++ |
| 330 (SMSADVPLV; listed as Homo sapiens) [compound 330] | NSCLC, SCLC, BRCA, MCC, Melanoma, Esophageal Cancer, Urinary bladder cancer, Uterine Cancer, Gallbladder Cancer, Bile Duct Cancer, AML, NHL | Brain, Colon, Rectum | ++ |
| 332 (AMLAVLHTV; listed as Homo sapiens) [compound 332] |  | Brain, Colon, Rectum | + |
| 334 (SILTIEDGIFEV; listed as Homo sapiens) [compound 334] |  | Kidney, Brain, Colon, Rectum, Pancreas, CLL | + |
| 335 (SLLPVDIRQYL; listed as Homo sapiens) [compound 335] |  | Kidney, CLL | ++ |
| 336 (YLPTFFLTV; listed as Homo sapiens) [compound 336] |  | Kidney, Brain | + |
| 337 (TLLAAEFLKQV; listed as Homo sapiens) [compound 337] |  | Brain | + |
| 338 (KLFDSDPITVTV; listed as Homo sapiens) [compound 338] |  | Brain | +++ |
| 340 (KVFDEVIEV; listed as Homo sapiens) [compound 340] |  | Brain | + |
| 342 (AMSSKFFLV; listed as Homo sapiens) [compound 342] | NSCLC, GC, PrC, BRCA, Melanoma, OC, Esophageal Cancer, Urinary bladder cancer, Uterine Cancer, Gallbladder Cancer, Bile Duct Cancer, PC | Brain, Colon, Rectum, Pancreas | + |
| 343 (LLLPDYYLV; listed as Homo sapiens) [compound 343] |  | Brain, Pancreas | + |
| 345 (SYNPLWLRI; listed as Homo sapiens) [compound 345] | NSCLC, RCC, GC | Brain | +++ |
| 346: peptide found in CDK1 (gene looked up) (LYQILQGIVF; listed as Homo sapiens) [compound 346] | NSCLC, Brain Cancer, GC | Kidney | +++ |
